From the supplement of paper PMC6143611 come the findings set out here.

For assay [1], the system named is Danio rerio larva rod photoreceptor outer segment. Briefly: rod outer segment growth distance Dg, difference from same-week DMSO control mean; higher = more outer segment growth. The following applies: 20 µM; treatment time: 4 days (6-10 dpf).
For assay [2] the test system is unchanged. Briefly: rod outer segment shedding distance Ds, difference from same-week DMSO control mean; higher = less outer segment shedding. The following applies: 20 µM; treatment time: 4 days (6-10 dpf).

Each structure is given as a SMILES string. Where a name gives a salt, the structure may show the parent alone. ± gives the uncertainty stated by the source. This is one part of the list. Plates or batches differ in their baseline, so values are only roughly comparable.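 Larvae carried a heat-shock-induced fluorescent stripe in rod outer segments, set at 6 dpf; the shedding distance runs from this stripe to the outer segment tip, measured in confocal stacks, about three fish per compound. The controls got 0.2% DMSO vehicle, and the paper flagged compounds with at least a 20% change against the same-week control and p < 0.001 (Dunnett test on mixed-effects models).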

Take `Cc1cc(Cn2cnc3c2CC(C(=O)O)N(C(=O)C(c2ccccc2)c2ccccc2)C3)ccc1N(C)C` (configuration not stated): in assay [1], the “rod outer segment growth distance Dg” value was -0.45 ± 0.23 um. Also, the “rod outer segment shedding distance Ds” value in assay [2] is -0.1 ± 0.3 um.
In the same order, the values of `CN(C)Cc1cccc(N=C(c2ccccc2)c2c(O)[nH]c3cc(C(N)=O)ccc23)c1` are -0.89 ± 0.22 um and 0.6 ± 0.16 um.
In the same order, the values of `OCc1ccccc1O[C@@H]1O[C@H](CO)[C@@H](O)[C@H](O)[C@H]1O` [Salicin] are -0.65 ± 0.23 um and 1.1 ± 0.25 um.
In the same order, the values of `CC(=O)SCC(Cc1ccccc1)C(=O)NCC(=O)OCc1ccccc1` (configuration not stated) [Racecadotril] are -0.65 ± 0.24 um and 0.37 ± 0.28 um.
`CCCCCCNC(=O)n1cc(F)c(=O)[nH]c1=O` [Carmofur]: the “rod outer segment growth distance Dg” value in assay [1] was -0.34 ± 0.17 um. The “rod outer segment shedding distance Ds” value in assay [2] was -0.86 ± 0.21 um.
In the same order, the values of `CCn1c(=O)c2c(nc(/C=C/c3ccc(OC)c(OC)c3)n2C)n(CC)c1=O` [Istradefylline] are -0.97 ± 0.19 um and 0.06 ± 0.13 um.
In the same order, the values of `CCCCCCCCCCCCCCCC(=O)OC[C@H](O)[C@H]1OC(=O)C(O)=C1O` [L-Ascorbyl 6-palmitate] are -0.05 ± 0.23 um and 0.14 ± 0.22 um.
In the same order, the values of `CC(=O)Nc1ccccc1` [Acetanilide] are -0.69 ± 0.2 um and -0.39 ± 0.19 um.
Take `O=C(O)c1cc(/N=N/c2ccc(S(=O)(=O)Nc3ccccn3)cc2)ccc1O` [Sulfasalazine]: the “rod outer segment growth distance Dg” value in assay [1] is 0.01 ± 0.21 um. For the same compound, the “rod outer segment shedding distance Ds” value in assay [2] came to 0.15 ± 0.14 um.
On to `Cc1c(C(=O)N2CCOc3ccc(-c4ccc(N)nc4)cc3C2)ccc(S(C)(=O)=O)c1F`, for which the “rod outer segment growth distance Dg” value in assay [1] is -0.08 ± 0.17 um. In addition, the “rod outer segment shedding distance Ds” value in assay [2] is -0.31 ± 0.12 um.
`Cc1ccc(Nc2nccc(N(C)c3ccc4c(C)n(C)nc4c3)n2)cc1S(N)(=O)=O`: the “rod outer segment growth distance Dg” value in assay [1] worked out at 0.43 ± 0.22 um. Besides, the “rod outer segment shedding distance Ds” value in assay [2] was -0.76 ± 0.27 um.
As for `C[C@@H]1COCCN1c1cc(C2(S(C)(=O)=O)CC2)nc(-c2cccc3[nH]ccc23)n1`, in assay [1], the “rod outer segment growth distance Dg” value is -1.25 ± 0.23 um. Further, the “rod outer segment shedding distance Ds” value in assay [2] is -0.55 ± 0.18 um.
In the same order, the values of `Cc1cc(=O)oc2cc(O)ccc12` [4-Methylumbelliferone (4-MU)] are -0.32 ± 0.21 um and 0.93 ± 0.32 um.
In the same order, the values of `O=C1c2c(O)cc(O)cc2OC(c2ccc(O)c(O)c2)C1O` (configuration not stated) [Taxifolin (Dihydroquercetin)] are -0.22 ± 0.22 um and 0.57 ± 0.27 um.
For `Cn1ccnc1S` [Methimazole], the “rod outer segment growth distance Dg” value in assay [1] was 0 ± 0.18 um. Further, the “rod outer segment shedding distance Ds” value in assay [2] amounted to 0.22 ± 0.14 um.
Take `CCc1ccc(CCOc2ccc(CC3SC(=O)NC3=O)cc2)nc1` (configuration not stated) [Pioglitazone HCl]: in assay [1], the “rod outer segment growth distance Dg” value was 0.82 ± 0.32 um. Besides, the “rod outer segment shedding distance Ds” value in assay [2] was -1.23 ± 0.3 um.
For the compound `CCS(=O)(=O)c1cccc(-c2cc(C(=O)NC3CCN(C)CC3)c(C)c3[nH]c4ncc(C)cc4c23)c1`, the “rod outer segment growth distance Dg” value in assay [1] is -0.63 ± 0.17 um. The “rod outer segment shedding distance Ds” value in assay [2] is -0.33 ± 0.12 um.
As to `C=CC1=C(C(=O)O)N2C(=O)[C@@H](NC(=O)/C(=N\O)c3csc(N)n3)[C@H]2SC1` [Cefdinir], the “rod outer segment growth distance Dg” value in assay [1] turned out to be 0.62 ± 0.17 um. Also, the “rod outer segment shedding distance Ds” value in assay [2] came out at 0.04 ± 0.14 um.
In the same order, the values of `CN1C(C(=O)Nc2ccccn2)=C(O)c2sccc2S1(=O)=O` [Tenoxicam] are -0.23 ± 0.24 um and 0.46 ± 0.31 um.
Regarding `Cc1coc2c1C(=O)C(=O)c1c-2ccc2c(C)cccc12` [Tanshinone I], the “rod outer segment growth distance Dg” value in assay [1] is -0.59 ± 0.21 um. Moreover, the “rod outer segment shedding distance Ds” value in assay [2] is -0.03 ± 0.28 um.
In the same order, the values of `Cc1nc(-c2ccc(OCC(C)C)c(C#N)c2)sc1C(=O)O` [Febuxostat] are -0.22 ± 0.14 um and -0.21 ± 0.16 um.
In the same order, the values of `O=C(O)CC[C@H]1CC[C@@](c2cc(F)ccc2F)(S(=O)(=O)c2ccc(Cl)cc2)CC1` are 0.12 ± 0.16 um and -0.45 ± 0.11 um.
In the same order, the values of `CC(=O)N[C@@H](CS)C(=O)O` [Acetylcysteine] are -0.76 ± 0.22 um and -0.1 ± 0.16 um.
For the compound `O=C(c1ccc(F)cc1)C1CCN(CCn2c(=O)[nH]c3ccccc3c2=O)CC1` [Ketanserin], the “rod outer segment growth distance Dg” value in assay [1] is -1.95 ± 0.28 um. Moreover, the “rod outer segment shedding distance Ds” value in assay [2] is -1.28 ± 0.29 um.
In the same order, the values of `CCOC(=O)[C@H](CCc1ccccc1)N[C@H]1CS[C@H](c2cccs2)CN(CC(=O)O)C1=O` [Temocapril HCl] are 0.53 ± 0.21 um and 0.1 ± 0.21 um.
In the same order, the values of `COc1ccc(CC2c3cc(OC)c(OC)cc3CC[N+]2(C)CCC(=O)OCCCCCOC(=O)CC[N+]2(C)CCc3cc(OC)c(OC)cc3C2Cc2ccc(OC)c(OC)c2)cc1OC` (configuration not stated) [Atracurium Besylate] are -0.86 ± 0.19 um and -0.66 ± 0.29 um.
